Literature values as cited in US20130296316A1, “Antiparasitic Agents Based On mTOR Inhibitors” (priority 2010, published 2013).
pEC50: −log10 of the molar value. For at least one compound, name, drawing or mass did not settle the structure.

Tests used:
human cells = conditions: literature, Table 1; read-out: Inhibition of Cell Growth EC50; cited from earlier work
T. brucei = conditions: read-out: EC50 T. brucei cell growth; cited from earlier work

SMILES | pEC50 (human cells) | pEC50 (T. brucei)
O=c1cc(N2CCNCC2)oc2c(-c3ccccc3)cccc12 [LY303511, 2-piperazinyl-8-phenyl-4H-1-benzopyran-4-one] | 6.00 | 
CO[C@H]1C[C@@H]2CC[C@@H](C)[C@@](O)(O2)C(=O)C(=O)N2CCCC[C@H]2C(=O)O[C@H]([C@H](C)C[C@@H]2CC[C@@H](O)[C@H](OC)C2)CC(=O)[C@H](C)/C=C(\C)[C@@H](O)[C@@H](OC)C(=O)[C@H](C)C[C@H](C)/C=C/C=C/C=C/1C [Rapamycin] |  | 6.82
